Results taken from patent US12448414B2 (Anhui Agricultural University, priority 2023, dated 2025).

Assay: general procedure: Fmoc solid-phase peptide synthesis; Rink resin; DIC
Details: whole synthesis, HPLC

## WWKLLRKL-NH2
Run 1
  purity (crude or final not stated): 96.40%
Run 2
  purity (crude or final not stated): greater than 95%

No end group written: not given here.
